From patent US20230348376A1 (TEIJIN PHARMA LIMITED, priority 2020, published 2023)

tested on: rat oligodendrocyte progenitor cells; assay: Promotive activity of rat oligodendrocyte progenitor cell differentiation-2 (immunostaining of MBP); format: cell-based; conditions: Test 4; vitamin D derivative 2 μM, T3 30 nM
Summary of the method: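 Vitamin D derivatives scored as symbols for promoting differentiation, read out by MBP immunostaining. OPCs taken from supernatant after about 22 h shaking (37 °C, 200 rpm) in separation medium.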

Question: `C=C1/C(=C\C=C2/CCC[C@]3(C)[C@@H]([C@H](C)CN4CCOC[C@@H]4C)CC[C@@H]23)C[C@@H](O)C[C@H]1O` [Compound I004, (1R,3R,Z)-5-(2-((1R,3aS,7aR,E)-7a-methyl-1-((S)-1-((S)-3-methylmorpholino)propan-2-yl)octahydro-4H-inden-4-ylidene)ethylidene)-4-methylenecyclohexane-1,3-diol] was tested. Which “Significant difference (t-test vs DMSO group)” value (“Significant difference” for short) did it give?
Answer: **** (<0.0001)

Question: How did the “Significant difference” value turn out when `C=C1/C(=C\C=C2/CCC[C@]3(C)[C@@H]([C@H](C)CN4CCOC[C@H]4C)CC[C@@H]23)C[C@@H](O)C[C@H]1O` [Compound I005, (1R,3R,Z)-5-(2-((1R,3aS,7aR,E)-7a-methyl-1-((S)-1-((R)-3-methylmorpholino)propan-2-yl)octahydro-4H-inden-4-ylidene)ethylidene)-4-methylenecyclohexane-1,3-diol] was run?
Answer: **** (<0.0001)

Question: Which “Significant difference” value does the source give for `C=C1/C(=C\C=C2/CCC[C@]3(C)[C@@H]([C@H](C)CN4CCOCC4(C)C)CC[C@@H]23)C[C@@H](O)C[C@H]1O` [Compound I006, (1R,3R,Z)-5-(2-((1R,3aS,7aR,E)-1-((S)-1-(3,3-dimethylmorpholino)propan-2-yl)-7a-methyloctahydro-4H-inden-4-ylidene)ethylidene)-4-methylenecyclohexane-1,3-diol] here?
Answer: **** (<0.0001)

same assay, conditions: Test 5; vitamin D derivative 2 μM, T3 30 nM

Question: `C=C1[C@H](O)CC(=C/C=C2\CCC[C@]3(C)[C@@H]([C@H](C)CN4CCN(C)C[C@@H]4C)CC[C@@H]23)C[C@H]1O` [Compound H011, (1R,3R)-5-(2-((1R,3aS,7aR,E)-1-((S)-1-((S)-2,4-dimethylpiperazin-1-yl)propan-2-yl)-7a-methyloctahydro-4H-inden-4-ylidene)ethylidene)-2-methylenecyclohexane-1,3-diol] was tested. Which “Significant difference” value did it give?
Answer: *** (<0.001)

same assay, conditions: Test 6; vitamin D derivative 2 μM, T3 30 nM

Question: For `C[C@H](CN1CCC[C@@H]1C(C)(C)O)[C@H]1CC[C@H]2/C(=C/C=C3C[C@@H](O)C[C@H](O)C3)CCC[C@]12C` [Compound G013, (1R,3R)-5-(2-((1R,3aS,7aR,E)-1-((S)-1-((R)-2-(2-hydroxypropan-2-yl)pyrrolidin-1-yl)propan-2-yl)-7a-methyloctahydro-4H-inden-4-ylidene)ethylidene)cyclohexane-1,3-diol], which “Significant difference” value is on record?
Answer: **** (<0.0001)

Question: How did the “Significant difference” value turn out when `C[C@H](CN1CCC[C@H]1C(C)(C)O)[C@H]1CC[C@H]2/C(=C/C=C3C[C@@H](O)C[C@H](O)C3)CCC[C@]12C` [Compound G014, (1R,3R)-5-(2-((1R,3aS,7aR,E)-1-((S)-1-((S)-2-(2-hydroxypropan-2-yl)pyrrolidin-1-yl)propan-2-yl)-7a-methyloctahydro-4H-inden-4-ylidene)ethylidene)cyclohexane-1,3-diol] was run?
Answer: **** (<0.0001)

Question: Which “Significant difference” value does the source give for `COC(C)(C)[C@H]1CCCN1C[C@@H](C)[C@H]1CC[C@H]2/C(=C/C=C3C[C@@H](O)C[C@H](O)C3)CCC[C@]12C` [Compound G015, (1R,3R)-5-(2-((1R,3aS,7aR,E)-1-((S)-1-((R)-2-(2-methoxypropan-2-yl)pyrrolidin-1-yl)propan-2-yl)-7a-methyloctahydro-4H-inden-4-ylidene)ethylidene)cyclohexane-1,3-diol] here?
Answer: **** (<0.0001)

Question: With `C[C@H](CCN1CCCC[C@@H]1C)[C@H]1CC[C@H]2/C(=C/C=C3C[C@@H](O)C[C@H](O)C3)CCC[C@]12C` [Compound G017, (1R,3R)-5-(2-((1R,3aS,7aR,E)-7a-methyl-1-((R)-4-((S)-2-methylpiperidin-1-yl)butan-2-yl)octahydro-4H-inden-4-ylidene)ethylidene)cyclohexane-1,3-diol] as the compound, how does the “Significant difference” value read?
Answer: **** (<0.0001)

Question: With `C[C@H](CCN1CCCC[C@H]1C)[C@H]1CC[C@H]2/C(=C/C=C3C[C@@H](O)C[C@H](O)C3)CCC[C@]12C` [Compound G018, (1R,3R)-5-(2-((1R,3aS,7aR,E)-7a-methyl-1-((R)-4-((R)-2-methylpiperidin-1-yl)butan-2-yl)octahydro-4H-inden-4-ylidene)ethylidene)cyclohexane-1,3-diol] as the compound, how does the “Significant difference” value read?
Answer: **** (<0.0001)

same assay, conditions: Test 7; vitamin D derivative 2 μM, T3 30 nM

Question: Which “Significant difference” value does the source give for `COC(C)(C)[C@@H]1CCCN1C[C@@H](C)[C@H]1CC[C@H]2/C(=C/C=C3C[C@@H](O)C[C@H](O)C3)CCC[C@]12C` [Compound G016, (1R,3R)-5-(2-((1R,3aS,7aR,E)-1-((S)-1-((S)-2-(2-methoxypropan-2-yl)pyrrolidin-1-yl)propan-2-yl)-7a-methyloctahydro-4H-inden-4-ylidene)ethylidene)cyclohexane-1,3-diol] here?
Answer: *** (<0.001)

Question: With `C=C1[C@H](O)CC(=C/C=C2\CCC[C@]3(C)[C@@H]([C@H](C)CN4CCCC[C@@H]4C)CC[C@@H]23)C[C@H]1O` [Compound H001, (1R,3R)-5-(2-((1R,3aS,7aR,E)-7a-methyl-1-((S)-1-((S)-2-methylpiperidin-1-yl)propan-2-yl)octahydro-4H-inden-4-ylidene)ethylidene)-2-methylenecyclohexane-1,3-diol] as the compound, how does the “Significant difference” value read?
Answer: **** (<0.0001)

Question: Which “Significant difference” value does the source give for `C=C1[C@H](O)CC(=C/C=C2\CCC[C@]3(C)[C@@H]([C@H](C)CN4CCN(C)C[C@H]4C)CC[C@@H]23)C[C@H]1O` [Compound H012, (1R,3R)-5-(2-((1R,3aS,7aR,E)-1-((S)-1-((R)-2,4-dimethylpiperazin-1-yl)propan-2-yl)-7a-methyloctahydro-4H-inden-4-ylidene)ethylidene)-2-methylenecyclohexane-1,3-diol] here?
Answer: ** (<0.01)

same assay, conditions: Test 8; vitamin D derivative 2 μM, T3 30 nM

Question: How did the “Significant difference” value turn out when `C=C1[C@H](O)CC(=C/C=C2\CCC[C@]3(C)[C@@H]([C@H](C)CN4CCC[C@@H]4C(C)(C)O)CC[C@@H]23)C[C@H]1O` [Compound H013, (1R,3R)-5-(2-((1R,3aS,7aR,E)-1-((S)-1-((R)-2-(2-hydroxypropan-2-yl)pyrrolidin-1-yl)propan-2-yl)-7a-methyloctahydro-4H-inden-4-ylidene)ethylidene)-2-methylenecyclohexane-1,3-diol] was run?
Answer: **** (<0.0001)

Question: With `C=C1[C@H](O)CC(=C/C=C2\CCC[C@]3(C)[C@@H]([C@H](C)CN4CCC[C@H]4C(C)(C)O)CC[C@@H]23)C[C@H]1O` [Compound H014, (1R,3R)-5-(2-((1R,3aS,7aR,E)-1-((S)-1-((S)-2-(2-hydroxypropan-2-yl)pyrrolidin-1-yl)propan-2-yl)-7a-methyloctahydro-4H-inden-4-ylidene)ethylidene)-2-methylenecyclohexane-1,3-diol] as the compound, how does the “Significant difference” value read?
Answer: **** (<0.0001)

Question: How did the “Significant difference” value turn out when `C=C1[C@H](O)CC(=C/C=C2\CCC[C@]3(C)[C@@H]([C@H](C)CN4CCC[C@@H]4C(C)(C)OC)CC[C@@H]23)C[C@H]1O` [Compound H015, (1R,3R)-5-(2-((1R,3aS,7aR,E)-1-((S)-1-((R)-2-(2-methoxypropan-2-yl)pyrrolidin-1-yl)propan-2-yl)-7a-methyloctahydro-4H-inden-4-ylidene)ethylidene)-2-methylenecyclohexane-1,3-diol] was run?
Answer: **** (<0.0001)

Question: `C=C1[C@H](O)CC(=C/C=C2\CCC[C@]3(C)[C@@H]([C@H](C)CN4CCC[C@H]4C(C)(C)OC)CC[C@@H]23)C[C@H]1O` [Compound H016, (1R,3R)-5-(2-((1R,3aS,7aR,E)-1-((S)-1-((S)-2-(2-methoxypropan-2-yl)pyrrolidin-1-yl)propan-2-yl)-7a-methyloctahydro-4H-inden-4-ylidene)ethylidene)-2-methylenecyclohexane-1,3-diol] was tested. Which “Significant difference” value did it give?
Answer: ** (<0.01)

same assay, conditions: Test 9; vitamin D derivative 2 μM, T3 30 nM

Question: `C=C1[C@H](O)CC(=C/C=C2\CCC[C@]3(C)[C@@H]([C@H](C)CN4CCCC[C@H]4C)CC[C@@H]23)C[C@H]1O` [Compound H002, (1R,3R)-5-(2-((1R,3aS,7aR,E)-7a-methyl-1-((S)-1-((R)-2-methylpiperidin-1-yl)propan-2-yl)octahydro-4H-inden-4-ylidene)ethylidene)-2-methylenecyclohexane-1,3-diol] was tested. Which “Significant difference” value did it give?
Answer: **** (<0.0001)

Question: How did the “Significant difference” value turn out when `C=C1[C@H](O)CC(=C/C=C2\CCC[C@]3(C)[C@@H]([C@H](C)CN4CCCCC4(C)C)CC[C@@H]23)C[C@H]1O` [Compound H003, (1R,3R)-5-(2-((1R,3aS,7aR,E)-1-((S)-1-(2,2-dimethylpiperidin-1-yl)propan-2-yl)-7a-methyloctahydro-4H-inden-4-ylidene)ethylidene)-2-methylenecyclohexane-1,3-diol] was run?
Answer: *** (<0.001)

Question: For `C=C1/C(=C\C=C2/CCC[C@]3(C)[C@@H]([C@H](C)CN4CCCC[C@@H]4C)CC[C@@H]23)C[C@@H](O)C[C@H]1O` [Compound I001, (1R,3R,Z)-5-(2-((1R,3aS,7aR,E)-7a-methyl-1-((S)-1-((S)-2-methylpiperidin-1-yl)propan-2-yl)octahydro-4H-inden-4-ylidene)ethylidene)-4-methylenecyclohexane-1,3-diol], which “Significant difference” value is on record?
Answer: *** (<0.001)

Question: How did the “Significant difference” value turn out when `C=C1/C(=C\C=C2/CCC[C@]3(C)[C@@H]([C@H](C)CN4CCCC[C@H]4C)CC[C@@H]23)C[C@@H](O)C[C@H]1O` [Compound I002, (1R,3R,Z)-5-(2-((1R,3aS,7aR,E)-7a-methyl-1-((S)-1-((R)-2-methylpiperidin-1-yl)propan-2-yl)octahydro-4H-inden-4-ylidene)ethylidene)-4-methylenecyclohexane-1,3-diol] was run?
Answer: **** (<0.0001)

Question: How did the “Significant difference” value turn out when `C=C1/C(=C\C=C2/CCC[C@]3(C)[C@@H]([C@H](C)CN4CCCCC4(C)C)CC[C@@H]23)C[C@@H](O)C[C@H]1O` [Compound I003, (1R,3R,Z)-5-(2-((1R,3aS,7aR,E)-1-((S)-1-(2,2-dimethylpiperidin-1-yl)propan-2-yl)-7a-methyloctahydro-4H-inden-4-ylidene)ethylidene)-4-methylenecyclohexane-1,3-diol] was run?
Answer: **** (<0.0001)
